{
  "source": "PubChem BioAssay AID504834",
  "about": "(National Center for Advancing Translational Sciences (NCATS), 2011)",
  "note": "About 22,000 (6.9%) of roughly 320,000 compounds were called active. Inconclusive results, whose numbers are uncertain, are shown with a selection of clear calls. Calls come from the whole dose curve; as a rule, active = well fitted inhibition curve with a large enough effect; inconclusive = small, poorly fitted or top-dose-only effect, or another doubt; inactive = no such curve, though single readings can be large or run the other way. Where the call is inconclusive, the potency comes from a doubtful curve fit. Potency is the fitted concentration of half-maximal effect.",
  "data": [
    {"assay": "Primary qHTS for delayed death inhibitors of the malarial parasite plastid, 96 hour incubation", "conditions": "P. falciparum luciferase reporter growth; series mostly up to 28.7 µM", "procedure,_shortened": "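Readout is luminescence from an integrated firefly luciferase in P. falciparum. Red cells, 2% hematocrit and 0.05% parasitemia final, were cultured with compound through two parasite generations (96 hours) at 37 C, 5% CO2.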", "values": [
      {"compound": "Nc1ccc(C(O)(C(F)(F)F)C(F)(F)F)cc1", "Potency": "inactive"},
      {"compound": "O=C(O)c1cc(N2C(=O)C3C4C=CC(C4)C3C2=O)ccc1NCc1cccnc1", "note": "(stereo unspecified)", "Potency": "inconclusive: 0.0329 µM [inhibitor, full curve, poor fit]"},
      {"compound": "O=C(NCC1CCN(C(=O)c2ccc([N+](=O)[O-])cc2)CC1)C(=O)Nc1ccccc1", "Potency": "active: 14.7 µM"},
      {"compound": "CCOC(=O)C(=CNc1ccc(C(O)(C(=O)OCC)C(F)(F)F)cc1C)C(=O)OCC", "note": "(stereo unspecified)", "Potency": "inconclusive: 18.5 µM [inhibitor, single point]"},
      {"compound": "CCOC(=O)N1CCN(C(=O)COC(=O)c2ccc(S(=O)(=O)N(CC)CC)cc2)CC1", "Potency": "inactive"},
      {"compound": "COc1ccc(CCNC(=O)CO/N=C/c2cc3c(cc2Br)OCO3)cc1OC", "Potency": "inconclusive: 0.522 µM [inhibitor, full curve, poor fit]"},
      {"compound": "CCCC(=O)NC(=S)Nc1ccccc1N1CCOCC1", "Potency": "active: 10.4 µM"},
      {"compound": "Cc1cc(C(=O)O)sc1C", "Potency": "inconclusive: 0.0033 µM [inhibitor, full curve, poor fit]"},
      {"compound": "COc1ccc(C(=O)NNS(=O)(=O)c2ccccc2)cc1OC", "Potency": "inactive"},
      {"compound": "CCC(=O)NC(=S)Nc1ccc(NC(=O)c2ccco2)c(Cl)c1", "Potency": "inconclusive: 14.7 µM [inhibitor, single point]"},
      {"compound": "CN(C)C(=O)C(OC(=O)c1ccc2c(c1)CCCC2)c1ccccc1", "note": "(stereo unspecified)", "Potency": "inconclusive: 10.4 µM [inhibitor, single point]"},
      {"compound": "CCOc1ccc(S(=O)(=O)NCCC(=O)N2CCN(c3ccccc3O)CC2)cc1", "Potency": "inactive"},
      {"compound": "Cc1cc(Oc2cc(NN3CCCCC3)c([N+](=O)[O-])cc2[N+](=O)[O-])ccc1[N+](=O)[O-]", "Potency": "inconclusive: 0.0029 µM [inhibitor, full curve, poor fit]"},
      {"compound": "COc1ccccc1NC(=O)Cn1cc(C#N)c2ccccc21", "Potency": "inactive"},
      {"compound": "COc1cc(/C=N/NC(=O)C[n+]2ccccc2)cc(OC)c1OC", "Potency": "inconclusive: 18.5 µM [inhibitor, single point]"},
      {"compound": "CCOc1ccc(N2C(=O)C3C(c4ccc(O)cc4)NC(CCSC)(C(=O)OC)C3C2=O)cc1", "note": "(stereo unspecified)", "Potency": "inconclusive: 13.1 µM [inhibitor, single point]"},
      {"compound": "S=c1[nH]nc(-c2ccccn2)n1/N=C/c1ccc(-c2ccccc2Br)o1", "Potency": "inactive"},
      {"compound": "CC1Cc2nc(SCC(=O)Nc3nc4ccccc4s3)n(C)c(=O)c2S1", "note": "(stereo unspecified)", "Potency": "inconclusive: 14.7 µM [inhibitor, partial curve]"},
      {"compound": "Fc1ccc(-c2csc(/C=C/c3ccc4c(c3)OCO4)n2)cc1", "Potency": "inactive"},
      {"compound": "CCCOP(=O)(OCCC)c1c([N+](=O)[O-])cc(C(F)(F)F)cc1[N+](=O)[O-]", "Potency": "active: 9.28 µM"},
      {"compound": "Fc1ccc2[nH]c3c(N4CCN(Cc5ccc6c(c5)OCO6)CC4)ncnc3c2c1", "Potency": "active: 2.62 µM"},
      {"compound": "Cc1cccc(CNc2ncnc3ccc(-c4ccc5c(c4)OCO5)cc23)c1", "Potency": "active: 3.29 µM"},
      {"compound": "CCOc1ccc2oc(C(=O)NCc3ccccc3CN3CCCC3)c(C)c2c1", "Potency": "active: 9.28 µM"},
      {"compound": "CC(C)CCOc1ccc(C(=O)N2CCCC2C(=O)O)cc1", "note": "(stereo unspecified)", "Potency": "inconclusive: 18.5 µM [inhibitor, single point]"},
      {"compound": "O=C(O)c1cc(N2N=C(C(F)(F)F)/C(=C/C=C/c3ccco3)C2=O)ccc1Cl", "Potency": "inconclusive: 0.0828 µM [inhibitor, partial curve, poor fit]"},
      {"compound": "CCOc1cccc(C2/C(=C(/O)c3ccc4c(c3)CC(C)O4)C(=O)C(=O)N2CCCn2ccnc2)c1", "note": "(stereo unspecified)", "Potency": "inactive"},
      {"compound": "O=C(NCc1ccccc1)C1CCCN(c2nc3ccsc3c(=O)s2)C1", "note": "(stereo unspecified)", "Potency": "inconclusive: 11.7 µM [inhibitor, single point]"},
      {"compound": "Cc1cccc(/C=N\\N=C\\c2cccc(C)c2)c1", "Potency": "active: 7.38 µM"},
      {"compound": "CC1CCCCC12NC(=O)N(CC(=O)c1ccc(Cl)s1)C2=O", "note": "(stereo unspecified)", "Potency": "inactive"},
      {"compound": "O=C(NCCCC1CCCC1)C1CCC(=O)N(Cc2cccc(C(F)(F)F)c2)C1", "note": "(stereo unspecified)", "Potency": "active: 11.7 µM"},
      {"compound": "O=c1[nH]c2cc3c(cc2cc1CN(Cc1ccc2c(c1)OCO2)Cc1nnnn1CC1CCCO1)OCO3", "note": "(stereo unspecified)", "Potency": "inconclusive: 5.22 µM [inhibitor, partial curve, poor fit]"},
      {"compound": "Cc1ccc(NCC(=O)Nc2ccc(Br)cc2)cc1C", "Potency": "inconclusive: 11.7 µM [inhibitor, single point]"},
      {"compound": "CC(C)Nc1cc(N2CCCC2)ccc1[N+](=O)[O-]", "Potency": "inconclusive: 18.5 µM [inhibitor, single point]"},
      {"compound": "COC(=O)C1=NNC2C(=O)N(c3ccc(C)cc3)C(=O)C12", "note": "(stereo unspecified)", "Potency": "inconclusive: 4.15 µM [inhibitor, single point]"},
      {"compound": "Cc1cc(C)c(C)c(OCCCOc2cccc3cccnc23)c1", "Potency": "inconclusive: 2.62 µM [inhibitor, full curve, poor fit]"},
      {"compound": "O=C(Nc1ccc(Cl)cc1)Nc1cccnc1", "Potency": "inconclusive: 14.7 µM [inhibitor, partial curve, poor fit]"},
      {"compound": "COc1ccc(-c2nnnn2C)cc1S(=O)(=O)NCc1ccccc1", "Potency": "inconclusive: 18.5 µM [inhibitor, single point]"},
      {"compound": "O=C(c1cccc(OCc2ccccc2)c1)N1CCOCC1", "Potency": "inconclusive: 6.57 µM [inhibitor, partial curve, poor fit]"},
      {"compound": "O=C(CCN1C(=O)c2ccccc2S1(=O)=O)NCc1ccccc1", "Potency": "inactive"},
      {"compound": "Cc1c(C(=O)Nc2ccc3c(c2)OCCO3)sc2nc(-c3ccccc3)cn12", "Potency": "inconclusive: 4.15 µM [inhibitor, partial curve, poor fit]"},
      {"compound": "CCCCCC(CC(=O)NO)C(=O)NC(C(=O)N1CCCC1CO)C(C)C", "note": "(stereo unspecified)", "Potency": "active: 2.94 µM"},
      {"compound": "Cc1cccc(N2CCN(C(=O)c3ccc4nc(-c5ccco5)c(-c5ccco5)nc4c3)CC2C)c1", "note": "(stereo unspecified)", "Potency": "inconclusive: 14.7 µM [inhibitor, partial curve, poor fit]"},
      {"compound": "O=C(NCCCO)/C(=C\\c1ccco1)NC(=O)c1ccco1", "Potency": "inconclusive: 18.5 µM [inhibitor, single point]"},
      {"compound": "COC(=O)C(C)Sc1nnc(Cc2cc(=O)[nH]c(=O)[nH]2)n1-c1cccc(OC)c1", "note": "(stereo unspecified)", "Potency": "inactive"},
      {"compound": "Cc1cccc(N2CCCC2=Nc2ccc(Br)cc2C#N)c1", "Potency": "inconclusive: 1.31 µM [inhibitor, single point]"},
      {"compound": "CN(C)CCCN(Cc1ccccc1)C(=S)Nc1ccc(OC(F)F)cc1", "Potency": "inconclusive: 13.1 µM [inhibitor, single point]"},
      {"compound": "COc1ccc(C2c3c(oc4ccccc4c3=O)C(=O)N2c2ccc(C)cn2)cc1OC", "note": "(stereo unspecified)", "Potency": "inconclusive: 18.5 µM [inhibitor, single point]"},
      {"compound": "COc1ccccc1CN1CCC(n2nccc2NC(=O)CCCc2ccccc2)CC1", "Potency": "inactive"},
      {"compound": "COC(=O)C1(C(F)(F)F)C2C=CC(C2)N1S(=O)(=O)c1ccc(C)cc1", "note": "(stereo unspecified)", "Potency": "inactive"},
      {"compound": "CC1CN(C(=O)c2ccc(C(=O)c3ccccc3)cc2)CC(C)O1", "note": "(stereo unspecified)", "Potency": "inconclusive: 11.7 µM [inhibitor, single point]"},
      {"compound": "COc1ccc(C(=O)C2CCCN(Cc3ccon3)C2)c(OC)c1", "note": "(stereo unspecified)", "Potency": "inconclusive: 10.4 µM [inhibitor, single point]"},
      {"compound": "CCC(OC(=O)c1nsc(Cl)c1Cl)C(=O)NCCOC", "note": "(stereo unspecified)", "Potency": "inconclusive: 18.5 µM [inhibitor, single point]"},
      {"compound": "O=C(CNC(=O)c1ccccc1F)OC(C(=O)Nc1cc(C(F)(F)F)ccc1Cl)c1ccccc1", "note": "(stereo unspecified)", "Potency": "inconclusive: 18.5 µM [inhibitor, single point]"},
      {"compound": "CN1CCN(CC(=O)Nc2c(C#N)cnn2-c2ccccc2)CC1", "Potency": "inactive"},
      {"compound": "CC(=O)c1cccc(NC(=S)N2CCc3ccccc32)c1", "Potency": "inactive"},
      {"compound": "CN(CC1CCCO1)S(=O)(=O)c1ccc(C(=O)Nc2nccs2)cc1", "note": "(stereo unspecified)", "Potency": "inconclusive: 11.7 µM [inhibitor, single point]"},
      {"compound": "Nc1cc(Cl)nc(N/N=C/c2c(O)ccc3ccccc23)n1", "Potency": "inconclusive: 16.5 µM [inhibitor, single point]"},
      {"compound": "CCN1CCN(C(=S)Nc2ccc([N+](=O)[O-])cc2)CC1", "Potency": "inactive"},
      {"compound": "COc1ccc(NC(=O)C(Sc2nnc(-c3ccncc3)n2-c2ccccc2C)c2ccccc2)cc1Cl", "note": "(stereo unspecified)", "Potency": "inconclusive: 2.08 µM [inhibitor, full curve]"},
      {"compound": "C=CCn1c(=S)[nH]c2cc(C(=O)N3CCN(c4ccccc4OC)CC3)ccc2c1=O", "Potency": "inconclusive: 18.5 µM [inhibitor, single point]"},
      {"compound": "c1ccc(CCNc2nc(-c3ccccn3)nc3ccccc23)cc1", "Potency": "active: 1.65 µM"},
      {"compound": "O=C(NCCCCc1ccccc1)c1ccc(Br)cc1", "Potency": "inconclusive: 7.38 µM [inhibitor, partial curve]"},
      {"compound": "COC(=O)C1CCN(Cc2cn(Cc3ccccc3)nc2-c2cc3ccccc3o2)CC1", "Potency": "inactive"},
      {"compound": "CC(=O)Nc1ccc(NC2=CC(=O)c3ccccc3C2=O)cc1", "Potency": "active: 0.586 µM"},
      {"compound": "Cc1ccc(SCCNC(=O)c2cccc([N+](=O)[O-])c2C)cc1", "Potency": "inconclusive: 2.62 µM [inhibitor, full curve, poor fit]"},
      {"compound": "CN1C(=O)c2ccc(NC(=O)c3ccc(Cl)cc3Cl)cc2C1=O", "Potency": "inconclusive: 18.5 µM [inhibitor, single point]"},
      {"compound": "CCOC(=O)/C=C/C(=O)OCC(=O)Nc1cccc(Cl)c1Cl", "Potency": "inactive"},
      {"compound": "COc1ccc(CN2CCN(C(=O)c3cccc(OC)c3OC)CC2)cc1OC", "Potency": "inactive"},
      {"compound": "COc1ccc2c(c1)c(C(=O)CN1CCN(c3ccccc3)CC1)c(C)n2C", "Potency": "inconclusive: 1.85 µM [inhibitor, full curve]"},
      {"compound": "Cc1ccc(S(=O)(=O)Nc2ccc3c(c2)nc2n3CCN(Cc3ccccc3)C2)cc1", "Potency": "inconclusive: 0.329 µM [inhibitor, full curve, poor fit]"},
      {"compound": "Cc1cccc(NC(=O)CN2C(=O)N/C(=C/c3cc(C)n(C)c3C)C2=O)c1", "Potency": "inactive"}
    ]}
  ]
}
